Measurements published in PubChem BioAssay AID540256 (National Center for Advancing Translational Sciences (NCATS), 2011).
About 3,700 (1.2%) of roughly 300,000 compounds were called active. This list was built around the results that the source calls inconclusive (neither active nor inactive); the mix of calls is not that of the screen. Calls follow the shape of the full dose curve; tested in HEK293 cells. Potencies beside an inconclusive call are fits to weak or partial responses and may not hold up.
% is scaled to controls: 0 for no effect and ±100 for the full control effect; potency is read from the fitted curve at half-maximal effect.

Test: qHTS for Inhibitors of binding or entry into cells for Lassa Virus; also: nearly all actives have a fitted effect of over 50% in size
Settings: Lassa virus pseudotype entry inhibition, cell reporter; activity change, negative = inhibition: at 37.9 µM (top of the series) unless noted
In the case of NC(=O)c1ccc(NC(=O)COC(=O)C2CC3C=CC2C3)cc1 (stereo unspecified), the Potency was inconclusive: 4.47 µM [activator, full curve, poor fit]. In the case of COc1cc(N=c2ssnc2Cl)c(OC)cc1Cl, the Potency was inconclusive: 0.651 µM [activator, full curve, poor fit]. For CC(C)C1CC(CCNCc2ccc3c(c2)OCO3)(c2ccccc2)CCO1 (stereo unspecified), the Potency was inconclusive: 35.5 µM [inhibitor, single point]. For O=C(Nc1nnc(S(=O)(=O)N2CCCc3ccccc32)s1)c1ccc(Cl)cc1, the Potency was “inactive”. With CCN(C(=O)CSc1nc(-c2ccc(C(C)C)cc2)no1)c1ccccc1 the Potency was inconclusive: 7.94 µM [inhibitor, partial curve, poor fit]. In the case of CCOc1ccc(NCCC(O)c2ccc(F)cc2)cc1 (stereo unspecified), the Potency was “inactive”. For COc1ccc(S(=O)(=O)Nc2ccccc2-c2nnn(CC(=O)Nc3ccccc3OC)n2)cc1, the Potency was inconclusive: 35.5 µM [inhibitor, single point]. In the case of Cc1c2cnn(-c3ccccc3)c(=O)c2c(C)n1CC(=O)Nc1ccccc1Br, the Potency was “inactive”. With CCCOc1ccc(Cc2nc(N)nc(N)n2)cc1 the Potency was inconclusive: 5.17 µM [activator, single point]. In the case of O=C(CCCN1C(=O)c2ccccc2C1=O)Nc1ccc(S(=O)(=O)N2CCOCC2)cc1, the Potency was inconclusive: 18.3 µM [activator, single point]. With COc1ccc2c(=O)c3c(=O)n(-c4ccccc4)c(-c4ccc(C)cc4)nc3oc2c1 the Potency was inconclusive: 3.55 µM [activator, full curve, poor fit]. With CN(C(=O)c1ccc(S(=O)(=O)N2CCOCC2)cc1)C1CCS(=O)(=O)C1 (stereo unspecified) the Potency was inconclusive: 35.5 µM [inhibitor, single point]. With CC(C)c1ccc(-n2cnn(-c3ncccc3[N+](=O)[O-])c2=O)cc1 the Potency was inconclusive: 15.8 µM [inhibitor, single point]. With COc1cc2c(cc1OC)C(c1ccc3c(c1)OCO3)CC(=O)N2 (stereo unspecified) the Potency was inconclusive: 3.26 µM [inhibitor, partial curve, poor fit]. For COC(=O)C(NNc1ccccc1C)(NC(=O)c1ccc(F)cc1)C(F)(F)F (stereo unspecified), the Potency was inconclusive: 32.6 µM [inhibitor, single point]. In the case of O=C1NC2(CCCCCC2)C(=O)N1CCS(=O)(=O)Oc1ccccc1, the Potency was inconclusive: 5.01 µM [inhibitor, full curve, poor fit]. For CN(Cc1ccccc1)CC1CCCN(CCc2ccccc2F)C1 (stereo unspecified), the Potency was “inactive”. In the case of O=C1c2cccc3cccc(c23)C(=O)N1CC1CCCO1 (stereo unspecified), the Potency was “inactive”. For CC(=O)N(C(C)=O)S(=O)(=O)c1ccc(N=NN2CCCCC2)cc1, the Potency was inconclusive: 5.62 µM [inhibitor, single point]. In the case of O=C(Nn1cnnc1)c1ccccc1Cl, the Potency was “inactive”. For COc1ccc(/C=C2/SC(=O)N(CCNC(=O)CC(NC(C)=O)c3ccccc3)C2=O)cc1 (stereo unspecified), the Potency was “inactive”. In the case of CC(C)CC(=O)Nc1c2c(nn1-c1cccc(Cl)c1)CS(=O)C2 (stereo unspecified), the activity change, negative = inhibition was inconclusive: 5.81% [activator]. With Nc1ccc2nc(SCc3cccc(F)c3)sc2c1 the Potency was inconclusive: 11.2 µM [inhibitor, partial curve, poor fit]. In the case of NC(=O)c1ccc(F)cc1, the Potency was “inactive”. With CCSc1nnc(NC(=O)c2cc(C)oc2C)s1 the Potency was inconclusive: 1.03 µM [activator, partial curve]. With CCn1c(SCC(=O)NCCc2ccccc2)nc2sc3c(c2c1=O)CCN(C)C3 the Potency was “inactive”. In the case of CC(=O)Nc1ccc(S(=O)(=O)Nc2ccc(Cc3ccncc3)cc2)cc1, the Potency was inconclusive: 0.794 µM [inhibitor, full curve, poor fit]. In the case of COc1ccc(-c2ccc3c(NC(=O)C4CC4)n[nH]c3n2)cc1, the Potency was inconclusive: 9.96 µM [activator, partial curve]. For COc1ccc(C(=O)NCC(=O)OCc2cc(=O)n3nc(C4CCCCC4)sc3n2)cc1, the Potency was “inactive”. For COc1ccc(CCN2C(=O)c3ccccc3NC2c2cc(Cl)c(O)c(OC)c2)cc1 (stereo unspecified), the Potency was active: 5.62 µM. With Cc1ccsc1C(=O)OCC(=O)N1CCOCC1 the Potency was inconclusive: 20.6 µM [activator, single point]. In the case of C/C(=N/Nc1ccccc1C(=O)O)c1cccs1, the Potency was inconclusive: 35.5 µM [inhibitor, single point]. In the case of COc1ccc2c(c1)CC1(CN2C)C(=O)NC(=O)N(c2ccc(F)cc2)C1=O (stereo unspecified), the Potency was “inactive”. For COc1ccc(/C=N/NC(=O)c2cc[n+]([O-])cc2)cc1, the Potency was inconclusive: 31.6 µM [activator, single point]. For COc1ccccc1/C=C/C(=O)NNC(=O)c1cc(C)oc1C, the Potency was inconclusive: 1.26 µM [inhibitor, single point]. For CCN(CC)CCCN(C(=O)c1ccc(F)cc1)c1nc(-c2ccc(OC)cc2)cs1, the Potency was inconclusive: 12.6 µM [inhibitor, partial curve, poor fit]. With COc1cccc(C(=O)NCCNC(=O)c2ccccn2)c1 the Potency was “inactive”. For O=C(N=c1nc2ccccn2s1)c1ccccc1, the Potency was “inactive”. In the case of Cc1ccc(C(=O)NNC(=O)CCCN2C(=O)/C(=C/c3ccccc3Cl)SC2=S)cc1, the Potency was inconclusive: 35.5 µM [inhibitor, single point]. With O=S(=O)(c1ccccc1)N1CCN(c2cc(-c3ccccc3)nc3ncnn23)CC1 the Potency was active: 14.6 µM. In the case of CC1(C)CC(=O)C2=C(C1)c1c(ccc3ccccc13)NC2c1ccc(C(=O)O)cc1 (stereo unspecified), the Potency was “inactive”. In the case of CCC(C)NC(=O)Cn1c(=O)n(-c2cc(OC)cc(OC)c2)c(=O)c2ccccc21 (stereo unspecified), the Potency was “inactive”. For O=C(CN1CCC(C(=O)c2ccc(F)cc2)CC1)NCc1ccccc1F, the Potency was inconclusive: 1.26 µM [activator, single point]. In the case of O=C(Nc1ccc(-n2nncc2-c2ccco2)cc1)c1ccc(F)cc1, the Potency was inconclusive: 13 µM [inhibitor, single point]. With O=C(c1ccccc1)c1ccc(OCC(O)CN2CCN(Cc3ccccc3)CC2)cc1 (stereo unspecified) the Potency was inconclusive: 29.1 µM [inhibitor, single point]. In the case of COc1ccc(/C=C/C(=O)NC(=S)Nc2ccccc2C(=O)NC2CCCCC2)cc1, the Potency was inconclusive: 20.6 µM [inhibitor, partial curve, poor fit].
